# Measured values: article PMC5578992
# The chains behind the UniProt entries cited, without tags or fusion partners.
# UniProt P49407: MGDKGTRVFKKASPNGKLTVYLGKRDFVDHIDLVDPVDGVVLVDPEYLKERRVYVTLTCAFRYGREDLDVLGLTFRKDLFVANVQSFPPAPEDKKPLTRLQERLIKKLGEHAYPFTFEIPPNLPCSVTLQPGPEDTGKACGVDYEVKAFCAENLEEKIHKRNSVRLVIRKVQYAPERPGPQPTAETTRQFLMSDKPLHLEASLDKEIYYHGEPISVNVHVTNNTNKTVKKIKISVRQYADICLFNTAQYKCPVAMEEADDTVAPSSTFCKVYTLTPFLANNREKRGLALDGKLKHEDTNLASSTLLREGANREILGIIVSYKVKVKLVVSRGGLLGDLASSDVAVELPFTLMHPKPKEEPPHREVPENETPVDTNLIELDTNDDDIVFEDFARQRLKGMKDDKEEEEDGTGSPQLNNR
# No constants are given. Whether binding was seen depends on the method and setting. In cells and extracts the contact can be indirect. Some results given as binding are weak or reduced against the parent protein; the word gives no strength.
# How the values were obtained:
# AT1R-YFP = AT1R-YFP (UniProt P30556); assay: FRET or BRET; live AD-293 cells co-transfected with β-arrestin-Rluc and a YFP fusion (AT1R-YFP, with or without the L-type channel; or a YFP-tagged L-type channel plus AT1R); coelenterazine H added 10 min before AngII; ratio 535/475 nm read every 25 s; 23 °C; change of BRET upon AngII stimulation
# [1] = biological target: YFP-tagged L-type calcium channel (CaV1.2, CaVβ/YFP and CaVα2δ) (UniProt P15381); assay: as above
binding (AT1R-YFP),Substance,binding [1]
binds,β-arrestin1-RLuc (from UniProt P49407 1-418),
binds,β-arrestin2-RLuc (from UniProt P32121 1-409),no binding
